# Taken from: PubChem BioAssay AID504791 (Drosophila RNAi Screening Center, 2011)
# Assay: 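Genes of the fly required for silencing by miRNA, siRNA or endo-siRNA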 (primary screen)
# Cells: Drosophila S2-derived reporter cells
# Knock-down reagent: long dsRNA against Drosophila genes, about 150-250 ng dsRNA per well (siRNA assay); about 80-120 ng (miRNA assay)
# Time to read-out: about 5 days (siRNA assay); about 4 days (miRNA assay)
# Conditions: copper sulfate induction of reporters: 25 µM (siRNA assay); 200 mM stated (miRNA assay), 1-2 days before reading
# Measured: 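Dual luciferase assay: Renilla to firefly signal ratio in each well, scaled to the mean ratio of its plate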
# Scale: siRNA reporter hit score: higher = 3 marks a strong hit with raised ratio; -3 a strong hit with lowered ratio
# Rule for the call: 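a well was a first-pass pick when its plate-scaled ratio rose above 1.5 (siRNA assay) or 1.6 (miRNA assay), or dropped below 0.6; a gene counted only if two separate dsRNAs agreed on retest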
# The deposit covers about 23,000 reagents; below is an unselected part of those that have a named target and a result. In the full data, 199 (0.86%) are marked active. 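Plate-scaled ratios behind the calls are not deposited; printed light signals are raw; many rows marked increased or decreased are still called inactive.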 Reagents against one gene are numbered here. Reagent sequences are not shown.
The first 3 records, ahead of the listing:
predicted target,reagent no.,siRNA reporter hit score,stable siRNA reporter change,miRNA reporter change,"stable assay Renilla, run 1 (luminescence)","stable assay firefly, run 1 (luminescence)",outcome
CG4610,1,,,,7330,5.39e5,inactive
CG4610,2,,,,5027,5.31e5,inactive
Pgls,1,,,,4780,3.74e5,inactive

Results, from the start:
predicted target,reagent no.,siRNA reporter hit score,stable siRNA reporter change,miRNA reporter change,"stable assay Renilla, run 1 (luminescence)","stable assay firefly, run 1 (luminescence)",outcome
CG4610,1,,,,7330,5.39e5,inactive
CG4610,2,,,,5027,5.31e5,inactive
Pgls,1,,,,4780,3.74e5,inactive
CG32432,1,3,reporter ratio raised past the hit cutoff,,5898,1.98e5,inactive
CG32432,2,,reporter ratio raised past the hit cutoff,,5719,2.01e5,inactive
CG32432,3,,,,7390,3.81e5,inactive
Vha26,1,,,,8759,6.45e5,inactive
CG14757,1,,,,6936,4.05e5,inactive
eg,1,,,,8054,4.06e5,inactive
CG6908,1,,,,7031,3.53e5,inactive
rad50,1,,,,96288,4.04e5,inactive
sw,1,,,,5992,3.96e5,inactive
SerT,1,,,,6487,3.74e5,inactive
CG34236,1,,,,4171,2.94e5,inactive
CG4914,1,,,,8502,3.39e5,inactive
CG34160,1,,,,5171,3.62e5,inactive
Tsc1,1,,,,10247,3.33e5,inactive
dec,1,,,,5979,4.12e5,inactive
dec,2,,,,8910,4.50e5,inactive
CG17803,1,,,,3591,3.37e5,inactive
CG17803,2,,,,4998,4.96e5,inactive
Alg2,1,,,,9030,5.42e5,inactive
mip120,1,,,,6791,4.57e5,inactive
CG32073,1,,,,4890,3.79e5,inactive
CG32073,2,,,,5583,4.03e5,inactive
Nmnat,1,,,,7491,4.21e5,inactive
Cep164,1,,,reporter ratio raised past the hit cutoff,5851,3.20e5,inactive
CG9008,1,,,,6442,1.16e6,inactive
CG14689,1,,,,6835,3.85e5,inactive
thetaTry,1,,,,6444,3.47e5,inactive
Tnpo-SR,1,,,,16773,6.56e5,inactive
CG5096,1,,,,7814,3.05e5,inactive
CG15097,1,,,,11295,6.13e5,inactive
CG31051,1,,reporter ratio lowered past the hit cutoff,,5276,5.52e5,inactive
